# Data source: PubChem BioAssay AID1259405 (NCATS, 2018)
# Screen: 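Silenced genes that increase secreted GFP made by CHO cells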 (primary screen)
# Cell system: Chinese hamster CHO-K1 ovary cells with stable secreted eGFP expression
# Knock-down reagent: single siRNA against mouse genes, 0.8 pmol siRNA per well (2 µl of 400 nM stock)
# Timing: 3 days
# Measured: 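Per-well intracellular GFP measured by laser scanning cytometry, plus viability from ATP luminescence, each relative to plate median of non-targeting control wells, in %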
# Scale: GFP, % of control: higher = more GFP per well, higher productivity; viability (ATP), % of control: higher = more viable cells (more ATP)
# Hit rule: 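Called active when intracellular GFP, relative to negative control, is at or above 120%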
# This is a random part of about 50,000 reagents tested. About 4,000 of them (8%) were called active. 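Mouse siRNA library applied to hamster cells; one well for each siRNA.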 A number with no mark means an inactive call. The numbers tell different reagents against one gene apart.
target,reagent no.,"GFP, % of control","viability (ATP), % of control"
Tiam2 (GeneID 24001),1,68.5,111
Tiam2 (GeneID 24001),2,82.2,87.3
Tiam2 (GeneID 24001),3,60.8,79.2
Rai1 (GeneID 19377),1,82.7,73.7
Rai1 (GeneID 19377),2,150 (active),94.4
Rai1 (GeneID 19377),3,29.5,57.5
Pigh (GeneID 110417),1,95.4,99.5
Pigh (GeneID 110417),2,98.6,118
Pigh (GeneID 110417),3,87.1,76.3
Pcdhb19 (GeneID 93890),1,79.9,89.9
Pcdhb19 (GeneID 93890),2,72.6,80.7
Mobp (GeneID 17433),1,39.6,43.9
Mobp (GeneID 17433),2,79.6,79.8
Mobp (GeneID 17433),3,79.6,59.6
Klk15 (GeneID 317652),1,86.3,105
Klk15 (GeneID 317652),2,97.2,61.4
Klk15 (GeneID 317652),3,59.4,36.3
Slc1a2 (GeneID 20511),1,96.7,65.3
Slc1a2 (GeneID 20511),2,70.1,63.4
Slc1a2 (GeneID 20511),3,102,98.4
Acan (GeneID 11595),1,116,81.6
Acan (GeneID 11595),2,68.4,64.5
Acan (GeneID 11595),3,85.3,52.3
Neil3 (GeneID 234258),1,97.8,89.5
Neil3 (GeneID 234258),2,71.4,82.8
Neil3 (GeneID 234258),3,22.5,51.8
Tlx1 (GeneID 21908),1,104,96.1
Tlx1 (GeneID 21908),2,88.1,97.6
Sftpc (GeneID 20389),1,99,88.5
Sftpc (GeneID 20389),2,58.9,71.3
Sftpc (GeneID 20389),3,47.9,62.3
Adamts16 (GeneID 271127),1,89.5,84.4
Adamts16 (GeneID 271127),2,101,74
Adamts16 (GeneID 271127),3,44.2,14.9
Spata20 (GeneID 217116),1,43.3,49.1
Spata20 (GeneID 217116),2,38.2,43.7
Spata20 (GeneID 217116),3,46.8,64.2
Mybpc1 (GeneID 109272),1,160 (active),114
Mybpc1 (GeneID 109272),2,72.3,67
Cd36 (GeneID 12491),1,70.2,61
Cd36 (GeneID 12491),2,82,60.6
Cd36 (GeneID 12491),3,80.6,65.8
Spred3 (GeneID 101809),1,183 (active),108
Spred3 (GeneID 101809),2,86.9,77.4
Spred3 (GeneID 101809),3,60.6,44.5
Use1 (GeneID 67023),1,71.5,54
Use1 (GeneID 67023),2,74.5,29.1
Use1 (GeneID 67023),3,103,72.9
Sh3gl3 (GeneID 20408),1,64.3,62.7
Sh3gl3 (GeneID 20408),2,43.5,51.1
Sh3gl3 (GeneID 20408),3,51.1,75
Trp53i11 (GeneID 277414),1,118,72.3
Trp53i11 (GeneID 277414),2,109,99
Trp53i11 (GeneID 277414),3,145 (active),83.8
Tfap2a (GeneID 21418),1,81.4,78.2
Tfap2a (GeneID 21418),2,79.4,62.8
Tfap2a (GeneID 21418),3,70.1,64.7
Mrps31 (GeneID 57312),1,80.6,68.8
Mrps31 (GeneID 57312),2,61.3,90.2
Mrps31 (GeneID 57312),3,56.6,77.1
Tom1 (GeneID 21968),1,68.6,75.5
Tom1 (GeneID 21968),2,61.9,73.9
Tom1 (GeneID 21968),3,58.2,108
Myt1 (GeneID 17932),1,59.1,56.4
Myt1 (GeneID 17932),2,41.9,70.2
Myt1 (GeneID 17932),3,83.8,98.3
C5ar1 (GeneID 12273),1,71.7,69.5
C5ar1 (GeneID 12273),2,86.6,101
C5ar1 (GeneID 12273),3,46.4,48.2
Clec3a (GeneID 403395),1,50.6,28.5
Clec3a (GeneID 403395),2,82.4,86.1
Clec3a (GeneID 403395),3,87,55.5
Prdx6b (GeneID 320769),1,73.9,75.3
Prdx6b (GeneID 320769),2,55.5,64
Prdx6b (GeneID 320769),3,72.2,81.3
Paip1 (GeneID 218693),1,95.6,104
Paip1 (GeneID 218693),2,82.6,87.4
Paip1 (GeneID 218693),3,70.4,77.3
Ankzf1 (GeneID 52231),1,99.6,108
Ankzf1 (GeneID 52231),2,33.8,33.5
Ankzf1 (GeneID 52231),3,126 (active),92.3
Cyp2d10 (GeneID 13101),1,112,31.7
Cyp2d10 (GeneID 13101),2,65.7,66.2
Cyp2d10 (GeneID 13101),3,52.4,60.3
Ccdc91 (GeneID 67015),1,188 (active),35
Ccdc91 (GeneID 67015),2,69,135
Ccdc91 (GeneID 67015),3,94.5,70
Myh9 (GeneID 17886),1,32.2,49.7
Myh9 (GeneID 17886),2,59,58.6
Pcdhgc3 (GeneID 93706),1,76.4,72.9
Pcdhgc3 (GeneID 93706),2,24.1,30.8
Pcdhgc3 (GeneID 93706),3,53.3,64.7
Dyrk2 (GeneID 69181),1,55.7,75.7
Dyrk2 (GeneID 69181),2,104,63.5
Dyrk2 (GeneID 69181),3,117,85.9
Ipcef1 (GeneID 320495),1,109,92.7
Ipcef1 (GeneID 320495),2,46.2,60.2
Ipcef1 (GeneID 320495),3,147 (active),130
Chmp4b (GeneID 75608),1,53.3,65
Chmp4b (GeneID 75608),2,28.1,33.5
Chmp4b (GeneID 75608),3,69.9,51.3
Hras (GeneID 15461),1,78.5,87.3
Hras (GeneID 15461),2,122 (active),92.2
Hras (GeneID 15461),3,86.5,64.4
Prkacb (GeneID 18749),1,60.7,45
Prkacb (GeneID 18749),2,40.4,31
Prkacb (GeneID 18749),3,87.8,102

Reformatted: entries from further up.
Tfap2a (GeneID 21418) #1
- GFP, % of control: 81.4
- viability (ATP), % of control: 78.2

Tfap2a (GeneID 21418) #2
- GFP, % of control: 79.4
- viability (ATP), % of control: 62.8

Tfap2a (GeneID 21418) #3
- GFP, % of control: 70.1
- viability (ATP), % of control: 64.7

Mrps31 (GeneID 57312) #1
- GFP, % of control: 80.6
- viability (ATP), % of control: 68.8

Mrps31 (GeneID 57312) #2
- GFP, % of control: 61.3
- viability (ATP), % of control: 90.2

Mrps31 (GeneID 57312) #3
- GFP, % of control: 56.6
- viability (ATP), % of control: 77.1

Tom1 (GeneID 21968) #1
- GFP, % of control: 68.6
- viability (ATP), % of control: 75.5

Tom1 (GeneID 21968) #2
- GFP, % of control: 61.9
- viability (ATP), % of control: 73.9

Tom1 (GeneID 21968) #3
- GFP, % of control: 58.2
- viability (ATP), % of control: 108

Myt1 (GeneID 17932) #1
- GFP, % of control: 59.1
- viability (ATP), % of control: 56.4

Myt1 (GeneID 17932) #2
- GFP, % of control: 41.9
- viability (ATP), % of control: 70.2

Myt1 (GeneID 17932) #3
- GFP, % of control: 83.8
- viability (ATP), % of control: 98.3

C5ar1 (GeneID 12273) #1
- GFP, % of control: 71.7
- viability (ATP), % of control: 69.5

C5ar1 (GeneID 12273) #2
- GFP, % of control: 86.6
- viability (ATP), % of control: 101

C5ar1 (GeneID 12273) #3
- GFP, % of control: 46.4
- viability (ATP), % of control: 48.2

Clec3a (GeneID 403395) #1
- GFP, % of control: 50.6
- viability (ATP), % of control: 28.5
